Source: publication PMC3372476
These are yes or no findings as the source states them, for the method shown. In cells and extracts the contact can be indirect. Some entries that bind do so weakly or less than the wild type.

Sequences of proteins named here, by UniProt entry; tags and fusion partners are left off.
UniProt P39688: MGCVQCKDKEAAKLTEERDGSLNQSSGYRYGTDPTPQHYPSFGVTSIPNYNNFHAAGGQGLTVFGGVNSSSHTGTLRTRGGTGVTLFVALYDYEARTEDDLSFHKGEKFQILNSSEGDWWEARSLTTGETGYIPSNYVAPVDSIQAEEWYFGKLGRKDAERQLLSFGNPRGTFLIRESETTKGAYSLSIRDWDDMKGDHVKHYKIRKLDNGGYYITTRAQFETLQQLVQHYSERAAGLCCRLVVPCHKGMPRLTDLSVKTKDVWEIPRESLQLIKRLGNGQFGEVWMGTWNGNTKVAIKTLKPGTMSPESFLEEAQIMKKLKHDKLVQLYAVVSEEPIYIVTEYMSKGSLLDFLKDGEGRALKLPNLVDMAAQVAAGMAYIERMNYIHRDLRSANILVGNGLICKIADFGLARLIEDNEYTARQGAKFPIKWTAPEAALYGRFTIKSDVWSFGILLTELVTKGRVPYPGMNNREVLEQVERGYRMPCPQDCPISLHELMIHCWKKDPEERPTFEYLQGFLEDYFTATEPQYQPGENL
UniProt P18031: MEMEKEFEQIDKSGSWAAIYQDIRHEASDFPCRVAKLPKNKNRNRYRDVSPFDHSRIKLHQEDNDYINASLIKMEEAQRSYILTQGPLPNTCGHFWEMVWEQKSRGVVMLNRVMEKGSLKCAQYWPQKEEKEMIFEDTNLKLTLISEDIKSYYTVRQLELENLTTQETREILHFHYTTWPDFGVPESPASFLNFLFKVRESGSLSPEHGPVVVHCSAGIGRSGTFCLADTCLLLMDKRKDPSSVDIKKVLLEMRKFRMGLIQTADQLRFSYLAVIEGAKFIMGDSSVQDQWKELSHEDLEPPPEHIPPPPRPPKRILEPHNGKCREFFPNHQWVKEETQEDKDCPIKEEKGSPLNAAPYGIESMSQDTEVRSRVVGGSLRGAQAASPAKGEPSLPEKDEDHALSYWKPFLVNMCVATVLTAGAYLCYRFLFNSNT

Target: Fyn-YN (UniProt P39688)
Experiment: split reporter; BiFC with YFP fragments YC (155-238) and YN (1-154) in co-transfected CHO-K1 cells on fibronectin-coated coverslips; whole cells, fixed (also live cells and TIRFM), wide-field fluorescence; cells scored as background, ER + punctate or only punctate

binding: binds
Substance: YC-PTP1BWT (from UniProt P18031 1-435) (enzyme)
